Data as given in PubChem BioAssay AID2685 (National Center for Advancing Translational Sciences (NCATS), 2010).
Some of the results follow. These are further read-outs of the screen, such as a control signal, another cell line or another target. No call is given for them. The list favours compounds with an active or inconclusive main result. Potencies come from curve fits of mixed quality, noted in brackets.

Experiment: qHTS Assay for Lipid Storage Modulators in Drosophila S3 Cells;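 on cell number change: cells counted by Cell Tracker Red CMTPX staining in the red channel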
Conditions: BODIPY lipid droplet fluorescence, 18-24 h; for cell number change: measured here: cell count max response, cells fed with added oleic acid
Procedure, shortened: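 Drosophila S3 cells loaded with oleic acid (400 uM, as added) and compounds at several concentrations; lipid droplets imaged by 488-nm laser-scanning cytometry, 500–530 nm intensity and object ratio to cell channel. Percent activity normalized to 20 uM Triacsin C.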

[1] = measured here: cell number channel AC50, cells fed with added oleic acid
[2] = measured here: lipid fluorescence (Fed channel) AC50, cells fed with added oleic acid

| SMILES | cell number change [%] | AC50 [1] | AC50 [2] |
| --- | --- | --- | --- |
| CCOC(=O)N1CCC(Nc2c(N3CCN(c4cc(Cl)ccc4C)CC3)c(=O)c2=O)CC1 | -41.2 | 29.1 µM [falling, single point] | 29.1 µM [falling, single point] |
| COc1ccc(-c2noc(CCCOc3ccc(Cl)cc3Cl)n2)cc1 | -1.41 | – | – |
| CC1CN(c2cc(-c3ccccc3)c3ccccc3n2)CC(C)O1 (stereo not drawn) | 13.7 | – | 0.082 µM [falling, full curve, poor fit] |
| O=[N+]([O-])c1cc(Cl)ccc1Oc1ccc(-c2nnco2)cc1 | – | – | 0.00411 µM [falling, full curve, poor fit] |
| O=C(NC(Cc1c[nH]c2ccccc12)C(=O)Nc1ccc(OC(F)(F)F)cc1)c1cccs1 (stereo not drawn) | -9.62 | – | – |
| O=Cc1ccccc1-c1cn(CN2C(=O)c3ccccc3C2=O)nn1 | 30.1 | 1.46 µM [rising, full curve, poor fit] | 0.58 µM [rising, single point] |
| CCCN1CCN(C(=O)CCc2nnc3ccc(N4CCN(c5cccc(OC)c5)CC4)nn23)CC1 | 0.288 | – | 8.2 µM [falling, partial curve] |
| C=CCn1c(SCc2csc(C)n2)nc2scc(-c3ccc(C)o3)c2c1=O | -52.9 | 32.6 µM [falling, partial curve] | – |
| COc1cc([N+](=O)[O-])ccc1NC(=O)CSc1nccn1C | – | 0.00517 µM [rising, full curve, poor fit] | – |
| CC(=O)Nc1ccc(NC(=O)CSc2nnc(NC(=O)C3CC(=O)N(c4ccc(F)cc4)C3)s2)cc1 (stereo not drawn) | -28.9 | – | – |
| COc1ccc(C(=O)Oc2ccc3ccc(=O)oc3c2)cc1OC | 19.8 | – | 0.082 µM [rising, full curve, poor fit] |
| CC(CC(=O)Nc1ccc2c(c1)OCCO2)c1ccccc1 (stereo not drawn) | – | – | 0.651 µM [falling, single point] |
| CC(=O)N1CCc2cc(S(=O)(=O)N3CCCCC3C)ccc21 (stereo not drawn) | -14.2 | – | 1.84 µM [falling, partial curve] |
| Cc1cccc(NC(=S)N2CCC(NC(=O)c3ccco3)CC2)c1 | -8.12 | – | 29.1 µM [rising, single point] |
| COc1cccc(N=Cc2c[nH][nH]c2=O)c1 | 44 | 3.66 µM [rising, partial curve] | 25.9 µM [rising, single point] |
| CCCn1c(SCC(=O)NC(C)C23CC4CC(CC(C4)C2)C3)n[nH]c1=O (stereo not drawn) | -32.4 | 16.4 µM [falling, single point] | 29.1 µM [falling, single point] |
| CCOC(=O)N1CCN(Cc2nc3c(c(=O)n(C)c(=O)n3C)n2CCCc2ccccc2)CC1 | 1.12 | – | 0.651 µM [rising, single point] |
| Brc1ccc(OCCOCCN2CCOCC2)cc1 | 16.7 | – | 29.1 µM [falling, single point] |
| COc1cc(/C=C2/C(=O)CNC2=O)ccc1O | -40.9 | 0.82 µM [falling, full curve] | 0.92 µM [falling, full curve] |

| SMILES | cell number change [%] | AC50 [1] | AC50 [2] |
| --- | --- | --- | --- |
| Cn1cnnc1SCC(=O)c1ccc(O)c(O)c1 | -17.8 | 4.11 µM [falling, single point] | 1.64 µM [falling, single point] |
| COc1ccc(-c2[nH]ncc2C=O)cc1 | -1.63 | – | 9.2 µM [rising, partial curve] |
| O=C(CSc1nnc(SCc2ccc(F)cc2)s1)Nc1ccc(C(=O)O)cc1 | – | – | 14.6 µM [rising, partial curve] |
| CCc1c(C)[nH]c(C(=O)OCc2ccccc2)c1C | -31.9 | 29.1 µM [falling, single point] | 32.6 µM [falling, single point] |
| COc1ccc(C)cc1NC(=O)CO/N=C(\N)CC(=O)Nc1ccccc1OC | 12.8 | – | 0.00461 µM [rising, full curve, poor fit] |
| Cc1ccc(-c2nc3cnccn3c2Nc2ccc3c(c2)OCO3)cc1 | – | – | 0.58 µM [rising, partial curve, poor fit] |
| N/C(CN1CCCCC1)=N\S(=O)(=O)c1cc(Cl)cc(Cl)c1 | 7 | 6.51 µM [falling, single point] | 6.51 µM [falling, single point] |
| COc1ccc(/C=C/C(=O)NCCCN2CCCCCC2)cc1 | 37.9 | 11.6 µM [rising, partial curve] | 29.1 µM [rising, single point] |
| CC(=O)c1ccc(OC(=O)C2CC(=O)N(c3cccc(C)c3)C2)cc1 (stereo not drawn) | -18.4 | 1.16 µM [falling, full curve, poor fit] | 3.26 µM [falling, full curve] |
| COc1ccc(C2NC(=O)CCC2[N+](=O)[O-])cc1OC (stereo not drawn) | -4.99 | – | 0.103 µM [rising, full curve, poor fit] |
| O=C(O)c1cc(S(=O)(=O)N2CCOCC2)ccc1N1CCCCC1 | -103 | – | – |
| COc1ccc(CNCCNC(=O)c2cccs2)c(OC)c1OC | 11.2 | – | 32.6 µM [rising, single point] |
| Cc1ccc(-n2nc3c(=O)n(CC(=O)NCCC4=CCCCC4)nc(C)c3c2C)cc1 | -10.2 | – | 1.03 µM [rising, full curve] |
| c1ccc2c(c1)OCC(c1nnc3sc(-c4ccc5c(c4)OCO5)nn13)O2 (stereo not drawn) | 2.97 | – | 4.11 µM [rising, full curve, poor fit] |
| CCOC(=O)c1c(C)oc2c1C(=O)c1ccccc1C2=O | -38.1 | 23.1 µM [falling, single point] | 23.1 µM [falling, single point] |
| CC(=O)Nc1ccc(N=Cc2ccc(OCc3ccccc3)cc2)cc1 | 9.91 | – | 0.517 µM [rising, full curve, poor fit] |
| CC(C)c1ccc(N(CC(=O)O)S(=O)(=O)c2cccnc2)cc1 | 0.184 | – | 6.51 µM [rising, single point] |
| O=S(=O)(Nc1cccc2[nH]ncc12)c1cccs1 | 11.8 | – | 0.00461 µM [rising, full curve, poor fit] |
| O=C(Nc1ccc(F)cc1)N1CCN(c2ncccn2)CC1 | 18.7 | – | – |

| SMILES | cell number change [%] | AC50 [1] | AC50 [2] |
| --- | --- | --- | --- |
| CC(C)(C(N)=O)N1CCN(c2ncc(C(F)(F)F)cc2Cl)CC1 | 1.01 | – | 2.31 µM [falling, partial curve] |
| COC(=O)c1ccc(Oc2cc(C)nc(NCc3ccccc3)n2)cc1 | 7.14 | – | 0.58 µM [falling, single point] |
| Cc1ccc(-n2cccc2/C=C2\C(=N)N3N=C(c4ccco4)SC3=NC2=O)cc1 | -2.62 | – | – |
| COc1ccc(OC)c(C2C(C(C)=O)=C(O)C(=O)N2CCC(=O)O)c1 (stereo not drawn) | -21.3 | – | 29.1 µM [falling, single point] |
| CCC(C)C(NS(=O)(=O)c1ccc(C)cc1)C(=O)Oc1ccc2c3c(c(=O)oc2c1)CCC3 (stereo not drawn) | -2.38 | – | 0.13 µM [rising, full curve, poor fit] |
| Cc1nc2ccccn2c1C(=O)NC1CCCc2ccccc21 (stereo not drawn) | -33.7 | 23.1 µM [falling, single point] | 16.4 µM [falling, partial curve, poor fit] |
| COc1ccc(CNC(=O)C2CCCN(c3nc4ccccc4o3)C2)c(OC)c1 (stereo not drawn) | 23.5 | – | 2.06 µM [rising, partial curve] |
| O=C(CNC(=O)c1ccc(Cl)c([N+](=O)[O-])c1)OC1CCCCC1=O (stereo not drawn) | 10.7 | – | 23.1 µM [falling, partial curve] |
| CS(=O)(=O)c1ccc2nc(NC(=O)Nc3ccc(Cl)c(Cl)c3)sc2c1 | -13.5 | 6.51 µM [falling, single point] | 5.17 µM [falling, full curve] |
| Cc1ccc2nc(NS(=O)(=O)c3cn(C)nc3C)sc2c1 | 18.9 | – | – |
| O=C(CSCc1cnn(-c2ccccc2)c1-n1cccc1)NCc1ccccn1 | 35.2 | 29.1 µM [rising, single point] | 29.1 µM [rising, single point] |
| CN(CC(=O)Nc1cccc(F)c1)C(=O)c1ccc(N2CCCCC2)c([N+](=O)[O-])c1 | 19.7 | – | 18.4 µM [rising, single point] |
| Cc1cnc(SCCc2ccncc2)nc1C | 106 | 11.6 µM [rising, partial curve] | 13 µM [rising, partial curve] |
| C=CCN(c1nc(C)c(Br)c(OC)n1)S(=O)(=O)c1ccc(C)cc1 | -0.263 | – | 29.1 µM [rising, single point] |
| Cc1cccc(C)c1OCC(=O)Nn1c(COc2ccccc2)nc2ccccc2c1=O | 45.4 | 9.2 µM [rising, partial curve] | 20.6 µM [rising, partial curve] |
| O=C(Nc1ccncc1)c1cn(-c2ccccc2)nc1-c1cccs1 | – | 1.84 µM [rising, partial curve] | 2.06 µM [rising, partial curve] |
| NC(=O)c1ccccc1NC(=O)CSc1cn[nH]n1 | 12.6 | – | 6.51 µM [rising, single point] |
| CC1CCN(C(=O)c2nc[nH]c2C(=O)N2CCC(C)CC2)CC1 | 6.02 | – | 0.0206 µM [rising, full curve, poor fit] |
| CCOc1ccccc1NC(=O)NCCc1c[nH]c2ccccc12 | -12.7 | – | 16.4 µM [falling, single point] |

Structural class: the entries above with a furan ring, fused or not

| SMILES | cell number change [%] | AC50 [1] | AC50 [2] |
| --- | --- | --- | --- |
| C=CCn1c(SCc2csc(C)n2)nc2scc(-c3ccc(C)o3)c2c1=O | -52.9 | 32.6 µM [falling, partial curve] | – |
| Cc1cccc(NC(=S)N2CCC(NC(=O)c3ccco3)CC2)c1 | -8.12 | – | 29.1 µM [rising, single point] |
| CCOC(=O)c1c(C)oc2c1C(=O)c1ccccc1C2=O | -38.1 | 23.1 µM [falling, single point] | 23.1 µM [falling, single point] |
| Cc1ccc(-n2cccc2/C=C2\C(=N)N3N=C(c4ccco4)SC3=NC2=O)cc1 | -2.62 | – | – |
